According to the supplement of paper PMC10735217:
Structures can show the parent of a compound that is named as a salt. The list shows a part of the results. This data set is noisy: repeats of one test often differ as much as different tests do.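 The human kidney-derived cells carry a stably integrated construct of eight TEAD-binding elements driving luciferase, read by luminescence in a drug-repurposing library screen. A compound counts as a hit when its signal is more than five robust Z scores above the plate mean.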

Tested on: HEK293A TEAD-LUC reporter
Experiment: TEAD-luciferase reporter activity (YAP activation), robust Z score vs plate; higher = stronger YAP/TEAD activation
Conditions: 24 h

Compound	TEAD-luciferase reporter activity (compound concentration: 200 nM)	TEAD-luciferase reporter activity (compound concentration: 10 uM)	TEAD-luciferase reporter activity (compound concentration: 2 uM)
O=C(C1CC1)N1CCC(C(=O)N2CCC(N3Cc4ccccc4C3=O)CC2)CC1	inactive: -0.603	inactive: 1.34	–
CON1CC/C(=C\c2cc(C(C)(C)C)c(O)c(C(C)(C)C)c2)C1=O	inactive: -0.513	inactive: -0.604	inactive: -1.71
Nc1ccc(S(=O)(=O)c2cnc(N)s2)cc1	inactive: -0.954	inactive: 2.66	inactive: -0.602
COc1cccc(CN(C(=O)CC(C)(C)C)[C@H]2C[C@@H](C(=O)N3CCNCC3)N(Cc3ccc4c(c3)OCO4)C2)c1	inactive: -0.497	inactive: 1.42	inactive: -0.175
COC1=C(C(=O)O)N2C(=O)[C@@H](NC(=O)[C@H](N)C3=CCC=CC3)[C@H]2SC1	inactive: -0.304	inactive: -0.735	inactive: -0.195
Cc1nc(Nc2ncc(C(=O)Nc3c(C)cccc3Cl)s2)cc(N2CCN(CCO)CC2)n1 [dasatinib]	inactive: -4.55	inactive: -2.58	inactive: -2.11
OCc1c[nH]c2ccccc12 [Indole-3-carbinol]	inactive: -1.18	inactive: 2.58	inactive: -1.71
COc1ccc(CC2CNC(=O)N2)cc1OC1CCCC1 (configuration not stated)	inactive: 1.3	inactive: -0.0394	inactive: -0.46
COc1ccc(Nc2ccn(-c3ccccc3)n2)cc1	–	–	inactive: 0.217
COc1ccc(Nc2ccn(-c3ccccc3)n2)cc1 [N-(4-Methoxyphenyl)-1-phenyl-1H-pyrazol-3-amine]	active: 10.7	active: 6.95	–
Cc1ccccc1-c1nc(N2CCOCC2)ncc1N(C)C(=O)C(C)(C)c1cc(C(F)(F)F)cc(C(F)(F)F)c1	inactive: 0.773	inactive: -0.0463	inactive: -0.468
CN(C)CC/C=C1/c2ccccc2CC(O)c2ccccc21 (configuration not stated)	inactive: -1.03	inactive: -1.38	inactive: -1.87
COc1cccc(C(=O)N2CCC(N3CCCCCC3=O)CC2)c1	inactive: -1.03	inactive: -1.79	–
CC(C(=O)OCCCCO[N+](=O)[O-])c1ccc(-c2ccccc2)c(F)c1 (configuration not stated)	inactive: -0.898	inactive: -0.621	inactive: -1.5
COC[C@H](C)Oc1cc(Oc2cnc(C(=O)N3CCC3)cn2)cc(C(=O)Nc2cnc(C)nc2)c1	inactive: -1.09	inactive: 0.884	inactive: -0.689
OCCN1CCN(CCCC2c3ccc(F)cc3Sc3ccc(C(F)(F)F)cc32)CC1 (configuration not stated)	inactive: -0.428	inactive: 1.28	inactive: -1.82
CC(O)C(N)C(=O)O (configuration not stated) [threonine, Indevus]	inactive: -0.954	inactive: 3.71	–
CCN(C)C(c1ccccc1)c1ccccc1	inactive: -0.654	inactive: 0.182	inactive: -1.7
CCC[C@]1(CCc2ccccc2)CC(=O)C(C(CC)c2cccc(NS(=O)(=O)c3ccc(C(F)(F)F)cn3)c2)C(=O)O1 (some centres not stated) [tipranavir]	inactive: -0.514	inactive: 0.888	inactive: -0.868
Cc1cc(=O)oc2cc(O[C@@H]3SC[C@@H](O)[C@H](O)[C@H]3O)ccc12 [Odiparcil]	inactive: 0.791	inactive: 0.189	inactive: -1.86

Compound	TEAD-luciferase reporter activity (compound concentration: 200 nM)	TEAD-luciferase reporter activity (compound concentration: 10 uM)	TEAD-luciferase reporter activity (compound concentration: 2 uM)
Cc1ccc(NC(=O)c2cccc(-c3nn[nH]n3)c2)cc1	inactive: -1.03	inactive: -1.54	inactive: -2.63
CCN1C(=O)c2cc(NC(=O)c3ccc(C(F)(F)F)cc3)ccc2Oc2ccccc21	inactive: 1.55	inactive: 2.3	inactive: 1.94
CN(C)CCCOc1ccc(-c2ccc3ncc4c(c3c2)n(C2CCOCC2)c(=O)n4C)cn1	inactive: 1.68	inactive: -1.61	inactive: -1.34
Cn1c(=O)c2c(ncn2CC(O)CN2CCN(CCCSc3ccccc3)CC2)n(C)c1=O (configuration not stated)	inactive: 0.912	inactive: 2.16	inactive: -1.67
Cn1cc(C(=O)[C@@H]2CCc3nc[nH]c3C2)c2ccccc21 [ramosetron (ODT)]	inactive: -1.03	inactive: -1.42	inactive: -2.32
Cc1c(-c2cccnc2)n(CCCCCCCC(=O)O)c2ccccc12	inactive: -0.552	inactive: -0.177	inactive: 1.15
CC(=O)Nc1c(I)cc(I)c(C(=O)O)c1I	inactive: -1.11	inactive: -0.983	inactive: -0.893
CC(=O)N[C@H]1CSSC[C@@H](C(N)=O)NC(=O)[C@H](C(C)C)NC(=O)[C@H](C)NC(=O)[C@H](Cc2cnc[nH]2)NC1=O [Exherin (trifluoroacetate)]	inactive: 1.5	inactive: 3.47	inactive: -0.866
Cl/C(=C\n1cncn1)c1ccc(Cl)cc1Cl [Loreclezole]	inactive: -0.376	inactive: 0.7	inactive: -1.56
CC(=O)NCC(=O)N1Cc2ccccc2CC2(CCCCN2CC2CCCC2)C1 (configuration not stated)	inactive: -1.14	inactive: -0.349	–
CC(C)NCC(O)c1cc(O)cc(O)c1 (configuration not stated) [Metaproterenol]	inactive: 0.148	inactive: -0.88	–
CC(C)NCC(O)c1cc(O)cc(O)c1 (configuration not stated) [Orciprenaline sulphate]	–	–	inactive: -1.39
Cc1cc(OCP2(=O)OCC[C@@H](c3cccc(Cl)c3)O2)cc(C)c1Cc1ccc(O)c(C(C)C)c1 (some centres not stated)	inactive: -1.52	inactive: -1.21	inactive: -0.748
CC(C)(C)c1ccc(O)c(C(=O)c2cccs2)c1	inactive: 1.51	inactive: -0.979	inactive: 1.09
CCCCC[C@H](O)/C=C/[C@@H]1[C@H]2C/C(=C/CCCC(=O)OC)C[C@H]2C[C@H]1O	inactive: -0.539	inactive: -0.504	inactive: -0.224
CCN(CCO)CCCC(C)Nc1ccnc2cc(Cl)ccc12 (configuration not stated)	inactive: -0.721	inactive: 4.33	–
CC(=O)C1c2cccc(O)c2C(=O)c2c(O)cccc21	inactive: -0.739	inactive: 0.367	inactive: 1.96
C[C@@H](NC(=O)[C@H](N)Cc1c[nH]c2ccccc12)C(=O)O	inactive: -2.61	inactive: 1.01	inactive: -1.34
COCCNC(=O)c1cccc(C(=O)NCCOC)n1	inactive: -1.04	inactive: -1.43	inactive: -1.99
CS(=O)(=O)c1ccccc1-c1ccc(NC(=O)c2cc(C(F)(F)F)nn2-c2cccc(CN)c2)c(F)c1	inactive: -0.772	inactive: 0.101	inactive: -0.359

Compound	TEAD-luciferase reporter activity (compound concentration: 200 nM)	TEAD-luciferase reporter activity (compound concentration: 10 uM)	TEAD-luciferase reporter activity (compound concentration: 2 uM)
COc1cc(C)c(S(=O)(=O)N(C)CCOCC(=O)N(C)Cc2ccc(C3=NCCN3)cc2)c(C)c1	inactive: -1.14	inactive: 0.688	inactive: 3.07
Nc1c2c(nc3ccccc13)CCCC2O (configuration not stated) [Hydroxytacrine maleate]	inactive: -3.01	inactive: -0.911	–
Nc1c2c(nc3ccccc13)CCCC2O (configuration not stated) [Velnacrine maleate]	–	–	inactive: -0.325
CCOC(=O)C1=C(CN2CCOCC2)NC(c2nccs2)=NC1c1ccc(F)cc1Br (configuration not stated) [Morphothiadin]	inactive: -0.463	inactive: 1.21	inactive: -0.438
O=C1Cc2c(ccc3c2OC(CNCc2ccccc2)CO3)N1 (configuration not stated) [Aplindore fumarate]	inactive: -0.75	inactive: 3.33	inactive: -0.843
Cc1c(Cl)cc2c(c1C)OC(C(F)(F)F)C(C(=O)O)=C2 (configuration not stated)	inactive: 0.0841	inactive: -2.21	inactive: -0.138
CNCC(O)c1ccc(O)c(O)c1 (configuration not stated) [Epinephrine]	–	–	inactive: 0.227
CC(=O)Oc1ccccc1C(=O)Nc1nccs1	inactive: 0.548	inactive: -0.114	inactive: -0.245
CCN(Cc1ccccc1)C(=O)Cn1c(=O)n(C)c2cnc(-c3ccccc3)nc21 [Emapunil]	inactive: -2.82	inactive: -0.555	inactive: -0.523
COc1cccc(C(O)C2CCN(CCc3ccc(F)cc3)CC2)c1OC (configuration not stated) [Volinanserin]	inactive: 2.88	inactive: 1.02	inactive: -1.15
O=C(C1CCCC1)N1CC2(CCN(Cc3ccc(Cl)cc3)CC2)Cc2ccccc21	inactive: -0.568	inactive: 2.78	–
CC(C)(C)c1cc(/C=C2\SCNC2=O)cc(C(C)(C)C)c1O	inactive: -0.125	inactive: -0.523	inactive: -1.21
COCCn1nc(-c2ccc(OCCCC(F)(F)F)cc2)oc1=O	inactive: -0.1	inactive: -0.51	inactive: -1.08
O=C(Nc1ccc(C(=O)N2C[C@@H]3COCCN3Cc3ccccc32)c(Cl)c1)c1ccccc1-c1ccccc1	inactive: -2.19	inactive: 1.55	inactive: -0.817
Cc1ccccn1 [2-Methylpyridine]	inactive: -1.09	inactive: -1.32	inactive: -1.57
Nc1nc(OCc2ccccc2)c2nc[nH]c2n1 [O6 benzyl guanine]	–	–	inactive: -1.74
Nc1nc(OCc2ccccc2)c2nc[nH]c2n1 [O6-benzylguanine]	inactive: 0.526	inactive: -0.599	–
CCN1CC(NC(=O)c2cc(Cl)c(N)cc2OC)CN1CC	inactive: -1.48	inactive: -1.33	inactive: -1.49
C/C1=C\CC[C@@]2(C)O[C@@H]2[C@H]2OC(=O)[C@@H](CN(C)C)[C@@H]2CC1 [Dimethylaminoparthenolide]	inactive: -0.527	inactive: -0.127	inactive: 0.856

Nothing new here: entries from further up.
Compound	TEAD-luciferase reporter activity (compound concentration: 200 nM)	TEAD-luciferase reporter activity (compound concentration: 10 uM)	TEAD-luciferase reporter activity (compound concentration: 2 uM)
Nc1c2c(nc3ccccc13)CCCC2O (configuration not stated) [Hydroxytacrine maleate]	inactive: -3.01	inactive: -0.911	–
Nc1c2c(nc3ccccc13)CCCC2O (configuration not stated) [Velnacrine maleate]	–	–	inactive: -0.325
CCOC(=O)C1=C(CN2CCOCC2)NC(c2nccs2)=NC1c1ccc(F)cc1Br (configuration not stated) [Morphothiadin]	inactive: -0.463	inactive: 1.21	inactive: -0.438
O=C1Cc2c(ccc3c2OC(CNCc2ccccc2)CO3)N1 (configuration not stated) [Aplindore fumarate]	inactive: -0.75	inactive: 3.33	inactive: -0.843
Cc1c(Cl)cc2c(c1C)OC(C(F)(F)F)C(C(=O)O)=C2 (configuration not stated)	inactive: 0.0841	inactive: -2.21	inactive: -0.138
CNCC(O)c1ccc(O)c(O)c1 (configuration not stated) [Epinephrine]	–	–	inactive: 0.227
CC(=O)Oc1ccccc1C(=O)Nc1nccs1	inactive: 0.548	inactive: -0.114	inactive: -0.245
CCN(Cc1ccccc1)C(=O)Cn1c(=O)n(C)c2cnc(-c3ccccc3)nc21 [Emapunil]	inactive: -2.82	inactive: -0.555	inactive: -0.523
COc1cccc(C(O)C2CCN(CCc3ccc(F)cc3)CC2)c1OC (configuration not stated) [Volinanserin]	inactive: 2.88	inactive: 1.02	inactive: -1.15
O=C(C1CCCC1)N1CC2(CCN(Cc3ccc(Cl)cc3)CC2)Cc2ccccc21	inactive: -0.568	inactive: 2.78	–
CC(C)(C)c1cc(/C=C2\SCNC2=O)cc(C(C)(C)C)c1O	inactive: -0.125	inactive: -0.523	inactive: -1.21
COCCn1nc(-c2ccc(OCCCC(F)(F)F)cc2)oc1=O	inactive: -0.1	inactive: -0.51	inactive: -1.08
O=C(Nc1ccc(C(=O)N2C[C@@H]3COCCN3Cc3ccccc32)c(Cl)c1)c1ccccc1-c1ccccc1	inactive: -2.19	inactive: 1.55	inactive: -0.817
